According to the supplement of paper PMC7666118:
This is one part of the list.

The chains behind the UniProt entries cited, without tags or fusion partners. Where a name states a change or a piece, a line headed by the entry shows the natural chain unless it says otherwise.
UniProt P61326, whole entry: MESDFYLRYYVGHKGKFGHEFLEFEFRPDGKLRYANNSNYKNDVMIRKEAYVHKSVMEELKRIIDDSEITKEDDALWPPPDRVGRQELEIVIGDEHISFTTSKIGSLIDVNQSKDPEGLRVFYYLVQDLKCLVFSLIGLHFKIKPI
UniProt Q9NU23: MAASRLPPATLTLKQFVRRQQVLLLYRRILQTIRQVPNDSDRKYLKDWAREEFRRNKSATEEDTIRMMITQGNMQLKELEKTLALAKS
UniProt Q9NS87: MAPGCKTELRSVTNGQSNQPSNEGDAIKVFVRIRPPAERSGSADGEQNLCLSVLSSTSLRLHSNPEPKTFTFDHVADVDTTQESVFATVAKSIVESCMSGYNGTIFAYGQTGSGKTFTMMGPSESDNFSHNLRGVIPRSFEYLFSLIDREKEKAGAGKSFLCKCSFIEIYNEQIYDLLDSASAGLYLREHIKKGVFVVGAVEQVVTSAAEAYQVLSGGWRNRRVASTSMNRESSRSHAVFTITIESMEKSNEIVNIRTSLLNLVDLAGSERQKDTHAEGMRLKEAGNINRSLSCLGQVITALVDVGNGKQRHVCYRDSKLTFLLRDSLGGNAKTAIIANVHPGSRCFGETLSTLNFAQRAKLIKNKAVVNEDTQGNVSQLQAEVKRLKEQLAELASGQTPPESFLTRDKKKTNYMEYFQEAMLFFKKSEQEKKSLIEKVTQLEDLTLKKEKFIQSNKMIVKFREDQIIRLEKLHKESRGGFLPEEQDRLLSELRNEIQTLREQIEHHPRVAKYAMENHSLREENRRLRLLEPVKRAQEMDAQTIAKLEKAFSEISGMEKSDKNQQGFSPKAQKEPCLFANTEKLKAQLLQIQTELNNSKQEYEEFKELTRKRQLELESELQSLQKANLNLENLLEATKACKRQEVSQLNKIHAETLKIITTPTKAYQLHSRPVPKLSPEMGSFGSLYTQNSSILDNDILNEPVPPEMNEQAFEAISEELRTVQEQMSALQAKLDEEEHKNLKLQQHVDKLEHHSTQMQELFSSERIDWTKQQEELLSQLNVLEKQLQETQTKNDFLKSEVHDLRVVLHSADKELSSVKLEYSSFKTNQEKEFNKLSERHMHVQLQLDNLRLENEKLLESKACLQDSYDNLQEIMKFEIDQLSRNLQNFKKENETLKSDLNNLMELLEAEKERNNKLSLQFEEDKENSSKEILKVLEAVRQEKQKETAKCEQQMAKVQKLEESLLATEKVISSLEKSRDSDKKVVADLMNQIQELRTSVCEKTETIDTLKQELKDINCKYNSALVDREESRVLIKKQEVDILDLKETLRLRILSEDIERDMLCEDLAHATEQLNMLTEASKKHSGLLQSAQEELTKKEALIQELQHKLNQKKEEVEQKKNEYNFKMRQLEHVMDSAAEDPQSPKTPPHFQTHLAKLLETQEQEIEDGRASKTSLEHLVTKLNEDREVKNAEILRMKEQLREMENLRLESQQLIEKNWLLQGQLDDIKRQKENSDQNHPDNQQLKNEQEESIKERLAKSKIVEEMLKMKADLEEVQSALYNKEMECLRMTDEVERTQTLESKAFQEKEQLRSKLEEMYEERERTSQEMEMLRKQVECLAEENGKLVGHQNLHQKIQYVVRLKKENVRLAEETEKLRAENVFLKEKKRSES
UniProt Q53H82: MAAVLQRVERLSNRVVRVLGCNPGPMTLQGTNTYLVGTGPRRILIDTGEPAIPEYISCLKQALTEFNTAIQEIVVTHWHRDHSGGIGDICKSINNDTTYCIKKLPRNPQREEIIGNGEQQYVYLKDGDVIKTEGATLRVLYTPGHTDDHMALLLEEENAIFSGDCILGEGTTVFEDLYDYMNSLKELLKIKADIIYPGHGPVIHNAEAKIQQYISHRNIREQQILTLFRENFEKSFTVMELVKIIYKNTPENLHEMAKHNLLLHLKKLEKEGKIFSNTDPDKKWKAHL
UniProt Q9Y6D9: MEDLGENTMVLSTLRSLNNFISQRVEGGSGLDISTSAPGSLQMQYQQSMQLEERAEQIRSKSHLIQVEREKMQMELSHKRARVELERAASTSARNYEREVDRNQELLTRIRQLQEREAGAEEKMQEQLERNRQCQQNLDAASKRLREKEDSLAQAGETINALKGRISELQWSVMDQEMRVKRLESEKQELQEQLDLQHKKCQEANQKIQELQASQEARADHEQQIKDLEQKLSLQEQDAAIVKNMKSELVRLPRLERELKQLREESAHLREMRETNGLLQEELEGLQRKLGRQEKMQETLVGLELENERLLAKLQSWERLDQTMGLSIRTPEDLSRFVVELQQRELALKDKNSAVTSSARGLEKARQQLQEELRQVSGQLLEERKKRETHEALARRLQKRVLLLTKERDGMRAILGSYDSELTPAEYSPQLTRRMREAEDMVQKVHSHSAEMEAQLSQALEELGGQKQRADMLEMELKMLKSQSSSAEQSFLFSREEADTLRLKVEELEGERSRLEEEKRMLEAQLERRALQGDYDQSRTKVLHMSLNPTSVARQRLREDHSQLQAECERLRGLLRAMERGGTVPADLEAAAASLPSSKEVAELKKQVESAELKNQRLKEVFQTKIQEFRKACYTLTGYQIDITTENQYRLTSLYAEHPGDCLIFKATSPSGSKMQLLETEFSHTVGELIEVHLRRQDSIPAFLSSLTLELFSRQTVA
UniProt P02788: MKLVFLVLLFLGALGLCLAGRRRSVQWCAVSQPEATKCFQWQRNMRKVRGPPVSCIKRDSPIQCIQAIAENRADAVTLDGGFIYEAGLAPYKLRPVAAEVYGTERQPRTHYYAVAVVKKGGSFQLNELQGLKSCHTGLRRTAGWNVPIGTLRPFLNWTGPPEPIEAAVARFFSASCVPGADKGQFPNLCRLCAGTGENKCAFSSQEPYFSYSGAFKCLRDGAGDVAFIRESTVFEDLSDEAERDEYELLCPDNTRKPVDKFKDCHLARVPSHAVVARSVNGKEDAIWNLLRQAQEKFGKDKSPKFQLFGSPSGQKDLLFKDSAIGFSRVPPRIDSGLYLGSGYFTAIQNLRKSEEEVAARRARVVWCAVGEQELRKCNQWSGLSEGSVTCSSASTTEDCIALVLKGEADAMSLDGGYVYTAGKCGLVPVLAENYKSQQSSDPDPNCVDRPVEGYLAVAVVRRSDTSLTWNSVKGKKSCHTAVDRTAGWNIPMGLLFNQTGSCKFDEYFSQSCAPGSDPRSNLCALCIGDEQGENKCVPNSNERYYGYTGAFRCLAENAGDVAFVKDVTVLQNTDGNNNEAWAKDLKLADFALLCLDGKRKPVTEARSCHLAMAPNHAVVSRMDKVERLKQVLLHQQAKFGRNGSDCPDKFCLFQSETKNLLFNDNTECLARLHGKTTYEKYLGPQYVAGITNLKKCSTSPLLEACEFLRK
UniProt Q6PJG9: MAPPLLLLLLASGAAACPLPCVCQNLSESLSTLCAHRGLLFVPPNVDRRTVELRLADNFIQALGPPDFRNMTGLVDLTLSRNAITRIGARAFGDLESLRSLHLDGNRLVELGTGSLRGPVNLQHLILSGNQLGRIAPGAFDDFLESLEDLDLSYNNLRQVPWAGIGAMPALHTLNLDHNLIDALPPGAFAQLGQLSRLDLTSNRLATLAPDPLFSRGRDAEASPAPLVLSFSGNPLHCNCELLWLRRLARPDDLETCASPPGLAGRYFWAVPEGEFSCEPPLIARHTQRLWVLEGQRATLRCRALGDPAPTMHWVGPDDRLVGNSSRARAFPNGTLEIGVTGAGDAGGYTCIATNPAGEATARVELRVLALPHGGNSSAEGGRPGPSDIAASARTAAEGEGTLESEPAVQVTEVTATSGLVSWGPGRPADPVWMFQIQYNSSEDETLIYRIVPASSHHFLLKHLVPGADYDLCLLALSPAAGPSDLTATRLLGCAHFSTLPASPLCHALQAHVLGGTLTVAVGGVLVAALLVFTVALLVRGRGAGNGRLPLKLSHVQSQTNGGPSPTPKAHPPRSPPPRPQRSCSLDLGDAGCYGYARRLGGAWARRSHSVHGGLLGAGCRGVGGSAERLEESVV
UniProt P11279: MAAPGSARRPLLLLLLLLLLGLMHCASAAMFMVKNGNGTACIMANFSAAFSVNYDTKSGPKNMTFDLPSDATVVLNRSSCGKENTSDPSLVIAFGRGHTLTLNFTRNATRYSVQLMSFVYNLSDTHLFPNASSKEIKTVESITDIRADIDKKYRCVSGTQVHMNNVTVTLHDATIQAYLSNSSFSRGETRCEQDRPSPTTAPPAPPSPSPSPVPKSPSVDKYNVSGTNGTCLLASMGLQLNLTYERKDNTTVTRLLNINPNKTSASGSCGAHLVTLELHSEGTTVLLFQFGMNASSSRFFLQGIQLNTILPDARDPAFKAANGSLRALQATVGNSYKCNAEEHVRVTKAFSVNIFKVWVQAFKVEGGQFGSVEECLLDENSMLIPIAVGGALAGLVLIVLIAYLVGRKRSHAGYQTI
UniProt Q14657: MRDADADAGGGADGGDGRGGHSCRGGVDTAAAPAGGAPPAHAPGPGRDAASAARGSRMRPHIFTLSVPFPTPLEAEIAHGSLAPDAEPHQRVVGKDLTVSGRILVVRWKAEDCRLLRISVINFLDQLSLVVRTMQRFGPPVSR
UniProt P13796: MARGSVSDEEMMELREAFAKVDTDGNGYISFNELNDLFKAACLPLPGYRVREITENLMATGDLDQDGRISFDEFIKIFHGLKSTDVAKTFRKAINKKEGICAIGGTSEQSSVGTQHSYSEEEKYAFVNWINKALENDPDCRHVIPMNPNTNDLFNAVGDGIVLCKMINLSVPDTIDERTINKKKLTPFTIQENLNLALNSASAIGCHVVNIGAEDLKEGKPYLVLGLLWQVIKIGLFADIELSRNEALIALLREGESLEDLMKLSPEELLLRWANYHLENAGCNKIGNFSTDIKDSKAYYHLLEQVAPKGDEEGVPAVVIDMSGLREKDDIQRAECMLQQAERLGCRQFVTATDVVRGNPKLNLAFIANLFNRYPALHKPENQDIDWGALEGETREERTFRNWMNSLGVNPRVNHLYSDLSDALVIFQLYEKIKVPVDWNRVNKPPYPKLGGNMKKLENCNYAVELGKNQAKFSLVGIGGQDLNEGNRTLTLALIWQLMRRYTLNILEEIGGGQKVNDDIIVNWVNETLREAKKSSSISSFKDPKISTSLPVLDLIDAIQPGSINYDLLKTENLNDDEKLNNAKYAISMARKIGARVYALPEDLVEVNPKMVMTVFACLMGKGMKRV
UniProt O94889: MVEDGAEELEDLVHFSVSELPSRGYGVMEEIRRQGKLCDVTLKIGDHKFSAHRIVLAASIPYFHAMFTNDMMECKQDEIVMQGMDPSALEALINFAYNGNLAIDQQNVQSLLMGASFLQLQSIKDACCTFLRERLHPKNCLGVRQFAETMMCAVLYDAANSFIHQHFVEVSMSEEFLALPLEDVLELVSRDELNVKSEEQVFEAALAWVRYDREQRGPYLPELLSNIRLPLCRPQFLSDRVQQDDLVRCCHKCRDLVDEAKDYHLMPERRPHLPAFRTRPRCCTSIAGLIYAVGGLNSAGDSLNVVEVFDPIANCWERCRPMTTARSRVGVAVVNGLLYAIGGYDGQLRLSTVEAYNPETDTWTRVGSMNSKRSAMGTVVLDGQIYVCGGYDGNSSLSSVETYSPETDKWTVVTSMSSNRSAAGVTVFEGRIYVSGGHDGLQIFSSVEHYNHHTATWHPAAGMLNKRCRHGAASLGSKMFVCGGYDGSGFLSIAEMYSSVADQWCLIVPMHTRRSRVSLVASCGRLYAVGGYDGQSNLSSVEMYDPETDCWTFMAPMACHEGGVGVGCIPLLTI
UniProt Q5VZE5: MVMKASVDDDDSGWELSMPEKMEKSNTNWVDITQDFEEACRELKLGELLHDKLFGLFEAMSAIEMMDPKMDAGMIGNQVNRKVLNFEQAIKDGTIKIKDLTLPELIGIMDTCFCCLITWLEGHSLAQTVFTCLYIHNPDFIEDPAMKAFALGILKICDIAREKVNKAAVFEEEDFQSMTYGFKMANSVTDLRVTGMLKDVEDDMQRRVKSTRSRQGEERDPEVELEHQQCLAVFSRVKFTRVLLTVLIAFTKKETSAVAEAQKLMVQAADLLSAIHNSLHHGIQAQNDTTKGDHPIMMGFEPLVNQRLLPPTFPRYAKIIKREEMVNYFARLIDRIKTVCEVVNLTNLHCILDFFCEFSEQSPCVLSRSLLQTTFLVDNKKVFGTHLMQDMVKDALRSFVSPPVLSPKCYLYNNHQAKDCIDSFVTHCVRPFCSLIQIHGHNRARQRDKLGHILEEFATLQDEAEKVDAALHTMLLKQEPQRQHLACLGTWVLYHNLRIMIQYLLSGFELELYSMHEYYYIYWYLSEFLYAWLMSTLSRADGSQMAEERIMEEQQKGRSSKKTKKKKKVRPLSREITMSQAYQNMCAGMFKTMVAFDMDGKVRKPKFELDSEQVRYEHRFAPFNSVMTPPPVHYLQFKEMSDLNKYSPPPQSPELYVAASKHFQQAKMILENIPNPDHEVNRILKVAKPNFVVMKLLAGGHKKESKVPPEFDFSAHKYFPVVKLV

Compound: COc1ccc(Cn2ccc3ccc(C(=O)NO)cc32)cc1
Assay: dose-dependent thermal stabilisation call (2D-TPP, DLPTP, 10% FDR) (binary (1 = stabilised)); higher = stabilised by the compound
Conditions: system: HL-60 intact cells; concentration range 0.04-10 µM

Row | Target | dose-dependent thermal stabilisation call
1 | MAGOH (UniProt P61326) | inactive: 0
2 | LMNB1 (UniProt P20700) | inactive: 0
3 | KIF2C (UniProt Q99661) | inactive: 0
4 | LYRM2 (UniProt Q9NU23) | inactive: 0
5 | L3MBTL3 (UniProt Q96JM7) | inactive: 0
6 | KIF15 (UniProt Q9NS87) | inactive: 0
7 | L2HGDH (UniProt Q9H9P8) | active: 1
8 | LAMP2 (UniProt P13473) | inactive: 0
9 | LACTB2 (UniProt Q53H82) | inactive: 0
10 | LRP6 (UniProt O75581) | inactive: 0
11 | LMAN1 (UniProt P49257) | inactive: 0
12 | KRI1 (UniProt Q8N9T8) | inactive: 0
13 | MAD1L1 (UniProt Q9Y6D9) | inactive: 0
14 | LAP3 (UniProt P28838) | active: 1
15 | KIAA0907 (UniProt Q7Z7F0) | inactive: 0
16 | LTF (UniProt P02788) | inactive: 0
17 | LOC100134303 | inactive: 0
18 | MACF1 | inactive: 0
19 | LRFN4 (UniProt Q6PJG9) | inactive: 0

In another format: results already given.
Row	Target	dose-dependent thermal stabilisation call
4	LYRM2 (UniProt Q9NU23)	inactive: 0
5	L3MBTL3 (UniProt Q96JM7)	inactive: 0

Going on with the list.

Row | Target | dose-dependent thermal stabilisation call
20 | LAMP1 (UniProt P11279) | active: 1
21 | MADD (UniProt Q8WXG6) | inactive: 0
22 | LRIG2 (UniProt O94898) | inactive: 0
23 | KIAA1429 (UniProt Q69YN4) | inactive: 0
24 | MAN2A2 (UniProt P49641) | inactive: 0
25 | LOH12CR1 (UniProt Q969J3) | inactive: 0
26 | KIAA1274 (UniProt Q9ULE6) | inactive: 0
27 | LAGE3 (UniProt Q14657) | inactive: 0
28 | KIAA0586 (UniProt Q9BVV6) | inactive: 0
29 | LRSAM1 (UniProt Q6UWE0) | inactive: 0
30 | LSM12 (UniProt Q3MHD2) | inactive: 0
31 | LCP1 (UniProt P13796) | inactive: 0
32 | KIAA0859 (UniProt Q8N6R0) | inactive: 0
33 | M11S1 (UniProt Q14444) | inactive: 0
34 | KLHL18 (UniProt O94889) | inactive: 0
35 | MAK10 (UniProt Q5VZE5) | inactive: 0
36 | LYST (UniProt Q99698) | inactive: 0
37 | KIAA1609 (UniProt Q6P9B6) | inactive: 0
